# Data from the supplement of paper PMC6411743.
# The chains behind the UniProt entries cited, without tags or fusion partners. Where a name states a change or a piece, a line headed by the entry shows the natural chain unless it says otherwise.
# UniProt O75081: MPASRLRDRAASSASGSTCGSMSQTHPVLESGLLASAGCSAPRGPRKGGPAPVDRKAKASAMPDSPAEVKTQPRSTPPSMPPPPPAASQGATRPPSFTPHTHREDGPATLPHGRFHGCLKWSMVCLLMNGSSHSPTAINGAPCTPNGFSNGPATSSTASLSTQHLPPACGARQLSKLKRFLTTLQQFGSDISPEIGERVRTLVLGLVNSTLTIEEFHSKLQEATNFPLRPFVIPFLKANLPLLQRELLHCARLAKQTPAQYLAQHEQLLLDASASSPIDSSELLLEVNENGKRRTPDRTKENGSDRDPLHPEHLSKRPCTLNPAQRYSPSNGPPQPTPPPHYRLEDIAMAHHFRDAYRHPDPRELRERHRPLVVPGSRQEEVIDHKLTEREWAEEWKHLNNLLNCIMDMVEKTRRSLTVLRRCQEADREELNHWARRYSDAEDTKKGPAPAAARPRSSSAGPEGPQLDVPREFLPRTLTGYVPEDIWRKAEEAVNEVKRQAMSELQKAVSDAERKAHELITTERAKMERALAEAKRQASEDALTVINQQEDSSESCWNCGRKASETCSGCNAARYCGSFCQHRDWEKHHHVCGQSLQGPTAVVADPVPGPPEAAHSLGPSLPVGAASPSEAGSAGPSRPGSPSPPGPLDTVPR
# UniProt O95352: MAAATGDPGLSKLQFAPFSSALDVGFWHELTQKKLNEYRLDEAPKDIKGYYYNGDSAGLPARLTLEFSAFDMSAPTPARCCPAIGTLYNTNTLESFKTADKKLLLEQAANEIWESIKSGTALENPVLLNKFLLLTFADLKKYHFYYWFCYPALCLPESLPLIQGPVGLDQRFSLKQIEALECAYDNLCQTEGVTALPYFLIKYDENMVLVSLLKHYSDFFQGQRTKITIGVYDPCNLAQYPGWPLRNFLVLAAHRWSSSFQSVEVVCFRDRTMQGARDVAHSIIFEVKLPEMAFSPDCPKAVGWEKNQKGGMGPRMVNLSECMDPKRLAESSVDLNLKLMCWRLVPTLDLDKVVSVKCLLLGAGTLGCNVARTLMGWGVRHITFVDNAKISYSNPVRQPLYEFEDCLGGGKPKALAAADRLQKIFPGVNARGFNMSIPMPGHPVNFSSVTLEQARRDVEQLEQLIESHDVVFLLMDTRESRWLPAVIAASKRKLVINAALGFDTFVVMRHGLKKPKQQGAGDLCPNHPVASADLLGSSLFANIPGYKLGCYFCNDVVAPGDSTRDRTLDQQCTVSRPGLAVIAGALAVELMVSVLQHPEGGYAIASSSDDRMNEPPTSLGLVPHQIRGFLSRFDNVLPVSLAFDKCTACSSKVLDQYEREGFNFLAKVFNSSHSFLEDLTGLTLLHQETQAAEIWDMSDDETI
# UniProt O75340: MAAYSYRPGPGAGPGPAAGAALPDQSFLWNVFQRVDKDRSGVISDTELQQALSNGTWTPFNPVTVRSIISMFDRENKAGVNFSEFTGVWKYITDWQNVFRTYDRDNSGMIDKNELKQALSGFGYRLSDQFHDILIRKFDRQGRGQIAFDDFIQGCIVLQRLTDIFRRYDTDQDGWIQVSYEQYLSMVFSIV
# UniProt O95155, whole entry: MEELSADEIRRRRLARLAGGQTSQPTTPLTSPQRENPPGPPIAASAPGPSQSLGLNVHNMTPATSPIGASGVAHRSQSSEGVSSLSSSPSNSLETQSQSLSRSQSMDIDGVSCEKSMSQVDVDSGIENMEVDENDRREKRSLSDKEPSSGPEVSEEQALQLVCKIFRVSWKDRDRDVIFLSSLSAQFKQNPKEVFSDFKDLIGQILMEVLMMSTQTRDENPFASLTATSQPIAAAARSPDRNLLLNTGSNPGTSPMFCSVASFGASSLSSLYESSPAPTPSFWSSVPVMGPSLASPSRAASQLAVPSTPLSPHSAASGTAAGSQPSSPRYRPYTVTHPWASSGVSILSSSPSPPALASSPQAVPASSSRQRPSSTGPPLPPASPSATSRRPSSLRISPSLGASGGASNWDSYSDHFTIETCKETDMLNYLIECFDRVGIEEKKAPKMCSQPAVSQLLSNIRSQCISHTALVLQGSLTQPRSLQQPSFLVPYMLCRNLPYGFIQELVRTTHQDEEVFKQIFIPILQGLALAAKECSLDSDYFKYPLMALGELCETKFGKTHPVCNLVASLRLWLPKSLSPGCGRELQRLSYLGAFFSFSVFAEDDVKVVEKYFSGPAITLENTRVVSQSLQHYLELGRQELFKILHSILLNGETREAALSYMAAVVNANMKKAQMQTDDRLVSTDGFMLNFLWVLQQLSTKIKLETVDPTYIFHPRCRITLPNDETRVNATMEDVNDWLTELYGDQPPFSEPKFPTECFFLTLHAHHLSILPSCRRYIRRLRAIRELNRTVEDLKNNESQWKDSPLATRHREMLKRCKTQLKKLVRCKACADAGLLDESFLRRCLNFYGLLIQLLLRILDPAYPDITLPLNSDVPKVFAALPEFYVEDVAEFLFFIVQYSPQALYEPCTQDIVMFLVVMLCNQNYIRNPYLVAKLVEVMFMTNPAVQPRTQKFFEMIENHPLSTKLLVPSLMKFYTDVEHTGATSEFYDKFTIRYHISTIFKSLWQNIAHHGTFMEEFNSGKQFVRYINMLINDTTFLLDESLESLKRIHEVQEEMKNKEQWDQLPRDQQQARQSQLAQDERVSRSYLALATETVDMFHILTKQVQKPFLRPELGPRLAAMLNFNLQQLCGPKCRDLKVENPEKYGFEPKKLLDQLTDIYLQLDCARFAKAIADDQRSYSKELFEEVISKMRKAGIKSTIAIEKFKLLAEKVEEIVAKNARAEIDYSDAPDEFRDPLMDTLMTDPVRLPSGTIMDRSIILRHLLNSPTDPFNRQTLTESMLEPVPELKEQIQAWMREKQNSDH
# UniProt O60496: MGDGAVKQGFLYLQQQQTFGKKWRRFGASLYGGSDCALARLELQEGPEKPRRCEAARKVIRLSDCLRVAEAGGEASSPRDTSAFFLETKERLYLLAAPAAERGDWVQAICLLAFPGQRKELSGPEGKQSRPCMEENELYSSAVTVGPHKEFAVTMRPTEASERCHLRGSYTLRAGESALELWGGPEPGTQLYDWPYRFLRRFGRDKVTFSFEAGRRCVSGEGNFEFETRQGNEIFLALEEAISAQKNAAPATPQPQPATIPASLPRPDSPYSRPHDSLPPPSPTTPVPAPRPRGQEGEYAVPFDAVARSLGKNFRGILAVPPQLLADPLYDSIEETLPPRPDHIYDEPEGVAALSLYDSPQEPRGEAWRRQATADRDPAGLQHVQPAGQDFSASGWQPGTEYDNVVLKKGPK
# UniProt O95182, whole entry: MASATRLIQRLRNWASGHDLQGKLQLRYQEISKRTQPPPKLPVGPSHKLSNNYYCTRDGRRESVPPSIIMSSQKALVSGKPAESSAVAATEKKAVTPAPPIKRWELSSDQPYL
# UniProt O95455: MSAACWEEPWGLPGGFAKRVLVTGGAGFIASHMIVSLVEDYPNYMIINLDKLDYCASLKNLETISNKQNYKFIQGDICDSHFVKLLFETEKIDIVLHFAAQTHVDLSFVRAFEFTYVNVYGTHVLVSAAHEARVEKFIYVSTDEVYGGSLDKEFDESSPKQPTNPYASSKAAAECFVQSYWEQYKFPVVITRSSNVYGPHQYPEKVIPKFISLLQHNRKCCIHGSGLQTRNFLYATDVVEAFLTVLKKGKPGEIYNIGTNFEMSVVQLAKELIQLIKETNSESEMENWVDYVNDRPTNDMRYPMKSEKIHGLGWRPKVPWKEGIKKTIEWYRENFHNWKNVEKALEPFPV
# UniProt O95602, whole entry: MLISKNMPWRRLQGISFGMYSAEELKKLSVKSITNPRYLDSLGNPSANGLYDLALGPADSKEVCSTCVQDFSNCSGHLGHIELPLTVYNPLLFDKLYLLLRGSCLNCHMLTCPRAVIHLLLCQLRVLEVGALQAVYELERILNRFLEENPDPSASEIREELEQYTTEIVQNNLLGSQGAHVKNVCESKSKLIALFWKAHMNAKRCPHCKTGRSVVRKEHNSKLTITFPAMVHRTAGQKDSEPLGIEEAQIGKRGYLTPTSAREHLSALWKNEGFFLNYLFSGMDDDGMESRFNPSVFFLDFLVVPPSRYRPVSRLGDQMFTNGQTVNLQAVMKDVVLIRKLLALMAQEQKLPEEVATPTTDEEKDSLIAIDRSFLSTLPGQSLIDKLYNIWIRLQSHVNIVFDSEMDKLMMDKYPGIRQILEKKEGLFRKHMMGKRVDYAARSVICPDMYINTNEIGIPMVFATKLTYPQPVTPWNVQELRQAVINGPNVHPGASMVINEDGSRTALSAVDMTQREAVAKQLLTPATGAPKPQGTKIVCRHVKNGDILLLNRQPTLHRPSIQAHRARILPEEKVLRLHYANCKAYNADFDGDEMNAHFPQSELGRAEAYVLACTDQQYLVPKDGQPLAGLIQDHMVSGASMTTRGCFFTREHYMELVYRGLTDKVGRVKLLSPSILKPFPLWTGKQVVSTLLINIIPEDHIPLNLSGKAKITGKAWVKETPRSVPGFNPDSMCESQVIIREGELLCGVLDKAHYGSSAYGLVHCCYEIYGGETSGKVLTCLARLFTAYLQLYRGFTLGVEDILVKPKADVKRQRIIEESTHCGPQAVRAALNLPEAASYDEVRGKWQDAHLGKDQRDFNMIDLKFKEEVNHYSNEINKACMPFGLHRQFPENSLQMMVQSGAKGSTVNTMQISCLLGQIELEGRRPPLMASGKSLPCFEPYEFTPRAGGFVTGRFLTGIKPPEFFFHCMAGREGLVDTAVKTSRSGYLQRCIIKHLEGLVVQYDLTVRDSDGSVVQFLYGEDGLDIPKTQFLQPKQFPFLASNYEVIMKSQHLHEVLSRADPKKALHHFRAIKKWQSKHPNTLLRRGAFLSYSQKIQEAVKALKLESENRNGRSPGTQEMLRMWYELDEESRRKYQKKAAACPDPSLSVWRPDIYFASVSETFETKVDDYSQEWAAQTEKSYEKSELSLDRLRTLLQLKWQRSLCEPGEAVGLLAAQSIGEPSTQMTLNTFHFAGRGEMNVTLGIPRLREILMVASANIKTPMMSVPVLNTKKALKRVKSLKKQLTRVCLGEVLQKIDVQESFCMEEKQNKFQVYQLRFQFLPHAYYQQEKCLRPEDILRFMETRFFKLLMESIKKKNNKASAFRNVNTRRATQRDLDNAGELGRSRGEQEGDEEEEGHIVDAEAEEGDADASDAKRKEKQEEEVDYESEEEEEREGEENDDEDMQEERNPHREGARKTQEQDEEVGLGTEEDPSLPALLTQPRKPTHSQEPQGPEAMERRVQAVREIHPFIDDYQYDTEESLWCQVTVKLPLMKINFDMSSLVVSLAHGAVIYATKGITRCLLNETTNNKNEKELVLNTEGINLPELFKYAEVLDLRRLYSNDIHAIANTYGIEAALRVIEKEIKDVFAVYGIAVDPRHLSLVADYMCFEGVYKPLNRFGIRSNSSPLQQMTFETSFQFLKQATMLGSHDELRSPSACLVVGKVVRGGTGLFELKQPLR
# UniProt O95671: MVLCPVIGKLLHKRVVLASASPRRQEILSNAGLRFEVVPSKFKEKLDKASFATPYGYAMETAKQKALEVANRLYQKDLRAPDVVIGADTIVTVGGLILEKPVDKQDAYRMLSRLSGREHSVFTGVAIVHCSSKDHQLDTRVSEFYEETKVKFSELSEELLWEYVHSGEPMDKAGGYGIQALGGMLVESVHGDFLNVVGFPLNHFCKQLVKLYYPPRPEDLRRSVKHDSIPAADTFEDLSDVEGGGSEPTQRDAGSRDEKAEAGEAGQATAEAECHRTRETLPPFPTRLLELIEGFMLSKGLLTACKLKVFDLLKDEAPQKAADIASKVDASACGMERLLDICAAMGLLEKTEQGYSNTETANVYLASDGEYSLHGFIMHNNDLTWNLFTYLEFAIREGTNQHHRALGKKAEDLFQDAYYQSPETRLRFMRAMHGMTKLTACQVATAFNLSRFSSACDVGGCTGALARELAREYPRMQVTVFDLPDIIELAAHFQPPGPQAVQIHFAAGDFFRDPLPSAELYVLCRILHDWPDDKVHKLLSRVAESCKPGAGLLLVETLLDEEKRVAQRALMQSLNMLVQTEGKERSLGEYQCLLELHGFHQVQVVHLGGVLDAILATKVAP
# UniProt O75390: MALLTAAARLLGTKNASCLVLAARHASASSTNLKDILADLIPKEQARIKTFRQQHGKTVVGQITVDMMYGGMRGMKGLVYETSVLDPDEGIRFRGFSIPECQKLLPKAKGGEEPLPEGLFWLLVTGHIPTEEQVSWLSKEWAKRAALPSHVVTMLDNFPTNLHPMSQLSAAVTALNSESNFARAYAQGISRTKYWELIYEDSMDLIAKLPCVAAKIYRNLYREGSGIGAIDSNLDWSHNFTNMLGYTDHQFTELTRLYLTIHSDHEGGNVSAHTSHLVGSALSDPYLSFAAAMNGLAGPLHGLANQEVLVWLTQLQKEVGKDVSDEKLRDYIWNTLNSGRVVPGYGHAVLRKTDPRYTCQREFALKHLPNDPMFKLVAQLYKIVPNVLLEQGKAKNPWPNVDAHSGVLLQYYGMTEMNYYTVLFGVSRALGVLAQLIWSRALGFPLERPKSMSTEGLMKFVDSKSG
# ± gives the standard deviation of the averaged measurements. The list shows a part of the results, in another mix than the full data. Most entries show no effect beyond the scatter of the controls.
# Compound: Nc1ncnc2c1ncn2[C@@H]1O[C@H](COP(=O)(O)OP(=O)(O)NP(=O)(O)O)[C@@H](O)[C@H]1O [adenylyl imidodiphosphate]
# Test: NP40-soluble protein abundance relative to vehicle (solubility fold change) (ratio); higher = more soluble protein in presence of AMP-PNP
# Outline: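 Jurkat crude lysate (Dounce-homogenised) was treated with eight concentrations from 0.1 to 10 mM for 10 min at room temperature, then 3 min at 37 °C. It was solubilised with 0.8% NP40 and benzonase (60 min, 4 °C) and ultracentrifuged, and the supernatant was TMT-labelled for LC-MS/MS. Intensities were vsn-normalised, and the value is the fold change against the NP40-processed vehicle per replicate, from three independent experiments.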
Target,NP40-soluble protein abundance (concentration: 0.1mM),NP40-soluble protein abundance (concentration: 0.5mM)
UniProt O75081 and related entries,1 ± 0.013,1.01 ± 0.038
ROCK2 (UniProt O75116),0.996 ± 0.032,1.04 ± 0.072
MRPS14 (UniProt O60783),1.03 ± 0.026,0.974 ± 0.036
DNAJA2 (UniProt O60884),0.986 ± 0.026,0.976 ± 0.029
SPAG7 (UniProt O75391),0.938 ± 0.033,0.966 ± 0.021
WBP4 (UniProt O75554),0.9415 ± 0.0075,0.986 ± 0.04
KIN (UniProt O60870),0.973 ± 0.017,1.004 ± 0.0095
UniProt O60566 and related entries,1.014 ± 0.0087,0.98 ± 0.01
UniProt O60232,0.996 ± 0.032,1.01 ± 0.037
UniProt O95453 and related entries,1 ± 0.016,0.998 ± 0.023
UniProt O95429 and related entries,1.011 ± 0.01,1.006 ± 0.0046
UniProt O75475 and related entries,0.965 ± 0.034,1.03 ± 0.035
UniProt O60869 and related entries,0.978 ± 0.038,1 ± 0.028
WDHD1 (UniProt O75717),0.986 ± 0.02,0.982 ± 0.02
LCMT2 (UniProt O60294),0.957 ± 0.015,0.988 ± 0.052
SMNDC1 (UniProt O75940),1.02 ± 0.032,1.04 ± 0.054
UniProt O95628-10|O95628-4|O95628-8|O95628-9|O95628 and related entries,0.994 ± 0.017,0.992 ± 0.018
UniProt O75071,1 ± 0.032,0.98 ± 0.021
NPM3 (UniProt O75607),0.994 ± 0.019,0.991 ± 0.041
O60344 and related entries (UniProt P0DPD6),0.999 ± 0.019,1.02 ± 0.02
SGPL1 (UniProt O95470),1.02 ± 0.046,1.02 ± 0.081
VPS4B (UniProt O75351),0.992 ± 0.0079,1.03 ± 0.043
UniProt O75170-3|O75170-4|O75170-5|O75170 and related entries,0.9933 ± 0.0078,0.995 ± 0.0073
UGDH (UniProt O60701),1.02 ± 0.039,0.991 ± 0.062
SNUPN (UniProt O95149),1.01 ± 0.027,0.97 ± 0.054

# Quoted from the listing.
# NP40-soluble protein abundance (concentration: 0.1mM) with KIN (UniProt O60870) reads 0.973 ± 0.017
# NP40-soluble protein abundance (concentration: 0.1mM) with WBP4 (UniProt O75554) reads 0.9415 ± 0.0075
# NP40-soluble protein abundance (concentration: 0.5mM) with DNAJA2 (UniProt O60884) reads 0.976 ± 0.029

# (cont.)

Target,NP40-soluble protein abundance (concentration: 0.1mM),NP40-soluble protein abundance (concentration: 0.5mM)
DNAJC8 (UniProt O75937),1 ± 0.091,1.02 ± 0.084
UniProt O75175 and related entries,0.94 ± 0.0095,0.945 ± 0.036
ATG7 (UniProt O95352),1.01 ± 0.042,0.981 ± 0.083
UniProt O75398-5|O75398 and related entries,1.02 ± 0.0092,1.02 ± 0.018
PDCD6 (UniProt O75340),1.07 ± 0.049,1.04 ± 0.056
UniProt O95155 and related entries,1.01 ± 0.016,0.964 ± 0.029
SLC25A12 (UniProt O75746),1.01 ± 0.025,1.01 ± 0.019
DOK2 (UniProt O60496),0.9946 ± 0.0036,1.042 ± 0.01
UniProt O75460,1.01 ± 0.024,1.04 ± 0.029
UniProt O60271 and related entries,1 ± 0.021,1.02 ± 0.054
UniProt O95551,0.978 ± 0.014,1.01 ± 0.025
RBBP9 (UniProt O75884),1.02 ± 0.023,0.985 ± 0.042
UniProt O94903,0.984 ± 0.017,1.01 ± 0.057
UniProt O75964,1.01 ± 0.061,1.09 ± 0.1
NDUFA7 (UniProt O95182),0.988 ± 0.012,1.01 ± 0.036
XYLB (UniProt O75191),0.9914 ± 0.0068,0.959 ± 0.013
NUP155 (UniProt O75694),1.03 ± 0.041,0.987 ± 0.096
UniProt O95466-2|O95466-3,1.006 ± 0.0066,1.02 ± 0.016
NDUFS3 (UniProt O75489),1.03 ± 0.035,1.01 ± 0.046
UniProt O75947,0.971 ± 0.021,1 ± 0.032
UniProt O60293 and related entries,1.02 ± 0.058,1.02 ± 0.027
CCDC22 (UniProt O60826),1.003 ± 0.0077,0.988 ± 0.053
TGDS (UniProt O95455),0.997 ± 0.024,0.994 ± 0.033
HUS1 (UniProt O60921),1.02 ± 0.012,0.98 ± 0.035
UniProt O75306 and related entries,0.993 ± 0.026,1 ± 0.019

Target,NP40-soluble protein abundance (concentration: 0.1mM),NP40-soluble protein abundance (concentration: 0.5mM)
UniProt O95379-3|O95379-4,0.989 ± 0.058,0.976 ± 0.011
UniProt O60762 and related entries,1.07 ± 0.03,0.978 ± 0.053
TAF5L (UniProt O75529),1.01 ± 0.034,1.002 ± 0.01
UniProt O95297 and related entries,0.917 ± 0.039,0.978 ± 0.026
ACSL3 (UniProt O95573),0.998 ± 0.057,1.01 ± 0.022
UniProt O75528 and related entries,1 ± 0.015,1.01 ± 0.034
UniProt O95684-2,0.9671 ± 0.0046,1.02 ± 0.031
POLR1A (UniProt O95602),1.01 ± 0.056,0.984 ± 0.068
UniProt O60524 and related entries,1 ± 0.017,1.03 ± 0.023
SEC24A (UniProt O95486),1 ± 0.034,0.992 ± 0.044
UniProt O75935 and related entries,1.06 ± 0.14,0.997 ± 0.11
VAPB (UniProt O95292),0.985 ± 0.03,1.04 ± 0.066
SAP30 (UniProt O75446),1.01 ± 0.019,1.03 ± 0.056
DNAJC13 (UniProt O75165),1.01 ± 0.032,1.01 ± 0.062
MED14 (UniProt O60244),0.994 ± 0.036,1 ± 0.069
UniProt O95644 and related entries,1.01 ± 0.015,0.983 ± 0.016
AQR (UniProt O60306),1.08 ± 0.022,0.97 ± 0.13
UniProt O95251 and related entries,1.04 ± 0.022,1.08 ± 0.011
UniProt O75592 and related entries,1.03 ± 0.024,0.999 ± 0.019
UniProt O95235 and related entries,1.04 ± 0.038,1.01 ± 0.042
ARL6IP5 (UniProt O75915),0.971 ± 0.028,0.997 ± 0.0061
UniProt O95671 and related entries,1.02 ± 0.033,1 ± 0.034
RANBP6 (UniProt O60518),0.97 ± 0.012,0.982 ± 0.018
ZMPSTE24 (UniProt O75844),1.01 ± 0.095,0.983 ± 0.14
NMT2 (UniProt O60551),0.994 ± 0.038,1.02 ± 0.021

Target,NP40-soluble protein abundance (concentration: 0.1mM),NP40-soluble protein abundance (concentration: 0.5mM)
UniProt O60645 and related entries,1.01 ± 0.038,0.985 ± 0.021
SF3B1 (UniProt O75533),1.01 ± 0.012,1.01 ± 0.016
UniProt O95613 and related entries,0.956 ± 0.039,0.924 ± 0.051
MED26 (UniProt O95402),1.05 ± 0.017,1.03 ± 0.034
FAM20B (UniProt O75063),1 ± 0.034,0.999 ± 0.026
DHX16 (UniProt O60231),1.013 ± 0.0071,1.011 ± 0.0049
PLOD3 (UniProt O60568),1 ± 0.02,1 ± 0.027
UniProt O60341,1.006 ± 0.0044,0.989 ± 0.03
UniProt O43933 and related entries,1.13 ± 0.044,1.11 ± 0.045
UniProt O75037 and related entries,1.03 ± 0.042,0.999 ± 0.025
UniProt O75400 and related entries,1.01 ± 0.028,1.04 ± 0.028
DUSP11 (UniProt O75319),1.02 ± 0.037,1.03 ± 0.037
UniProt O94916 and related entries,1.02 ± 0.055,1.01 ± 0.023
UniProt O60879-2|C9J6U3,0.988 ± 0.016,0.972 ± 0.018
CDC123 (UniProt O75794),1.06 ± 0.05,1.03 ± 0.061
MCM3AP (UniProt O60318),0.991 ± 0.018,1.01 ± 0.023
UniProt O75390 and related entries,1.11 ± 0.16,0.869 ± 0.24
UniProt O94964 and related entries,0.983 ± 0.011,0.986 ± 0.026
UniProt O60830 and related entries,1 ± 0.04,1.02 ± 0.051
UniProt O95169 and related entries,0.999 ± 0.034,1.02 ± 0.037
UniProt O94966-6|O94966-7,0.987 ± 0.018,0.96 ± 0.043
UniProt O60825 and related entries,1.04 ± 0.04,1.02 ± 0.023
DDHD2 (UniProt O94830),0.996 ± 0.069,0.96 ± 0.059
